In patent publication US20200308222A1 (DSM IP ASSETS B.V., priority 2017, published 2020) one finds isolated mass and isolated yield data, which are given here for 8 substances.

A short description of the data set: general procedure: Fmoc solid-phase peptide synthesis; Fmoc-ramage-resin (loading approx. 0.5 mmol/g) for unsubstituted amides; 2-chloro-trityl-resin (approx. 0.5 mmol/g) for; TBTU / DIPEA. The settings on record: whole synthesis; for isolated yield: scale of the general procedure approx. 2.0 g resin (loading approx. 0.5 mmol/g).

Where the note is “2TFA”, PhBu-His-D-Phe-Dab-Trp-NH2 *2TFA gave an isolated mass of 374 mg and an isolated yield of 37%.

Where the note is “2TFA”, PhBu-His-D-Phe-Arg-Trp-NH-Octyl *2TFA yielded an isolated mass of 279 mg and an isolated yield of 28%.

Where the note is “2 AcOH”, “4-MeO—PhBu-His-D-Phe-Arg-Trp-NH2 × 2 AcOH” returned an isolated mass of 386 mg and an isolated yield of 13%.

Under “2TFA”, PhBu-His-D-Phe-Arg-Trp-N(Propyl)2 *2TFA had an isolated mass of 262 mg and an isolated yield of 33%.

Under “2TFA”, PhBu-His-D-Phe-Arg-Trp-NH-Bn *2TFA returned an isolated mass of 209 mg and an isolated yield of 11%.

Where the note is “2TFA”, PhBu-His-D-Phe-Arg-L-2NaphAla-NH2 *2TFA gave an isolated mass of 425 mg and an isolated yield of 41%.

Regarding “PhBu-His-D-Phe-Arg-Trp-NH—CH2—CH(OH)—CH2OH *2TFA”, where the note is “2TFA”, the isolated mass came to 227 mg and the isolated yield is 18%.

For the setting “2TFA”, PhBu-His-D-Phe-Arg-D-2NaphAla-NH2 *2TFA returned an isolated mass of 307 mg and an isolated yield of 31%.
